This data set deals with AAV2. Put plainly: AAV2 release after cell lysis (physical titer by ELISA, genome titer by qPCR). It counts as cell-based. On the procedure: An AAV2 suspension upstream process is performed including a cell lysis step using various single reagents, like Triton X-100 (T100) or TDAO at various concentrations or 0.5 M NaCl, all at 37° C. The samples were centrifuged at ~13000 g for 5 min at different time points post lysis, and supernatants were removed and stored at -70° C. for assays. Physical titers were measured by enzyme-linked immunosorbent assay (ELISA) using an AAV2 Titration ELISA kit (Progen) following manufacturer’s protocol, genome titers were measured by quantitative PCR (qPCR) targeting a specific sequence within the transfer vector. All reagents and assay protocols are from MilliporeSigma unless otherwise specified. Among all the conditions tested, 0.5 M NaCl was the only one capable of releasing significant amounts of AAV2 at physical titer of e10 vp/mL and genome titer of e9 gc/mL levels (FIG. 1). Moreover, time-dependent effects from 30 min to 90 min post lysis for all 3 single reagents, and concentration-dependent effects from 0.5% to 1% for both single detergents have been observed (FIG. 1).
The same process is performed as in Example 1 but with NaCl combined with different detergents.
To investigate the optimal concentration of TDAO in combination with 0.5 M NaCl, an AAV2 dissociation test using 0 to 4% of TDAO and including an additional lysis time of 60 min was performed. […]

Molecules are shown by their SMILES.

Take `CCCCCCCCCCCCCC[N+](C)(C)[O-]` [TDAO, N,N-Dimethyltertra decylamine N-oxide]: the “optimal concentration in combination with 0.5 M NaCl” value (AAV2 dissociation test, 0 to 4% of TDAO, FIG. 3) was 2%. Besides, the best lysis time (TDAO in combination with 0.5 M NaCl, based on genome titers) is on record as 90 min.

Values taken from patent US20230183656A1, “METHODS AND COMPOSITIONS FOR PURIFYING ADENO ASSOCIATED VIRUS PARTICLES OR ADENOVIRUSES” (Merck Patent GmbH, priority 2020, published 2023).
